PubChem BioAssay AID504774 | Drosophila RNAi Screening Center – 2011
In all, the deposit lists about 23,000 reagents; below is an unselected part of those that have a named target and a result. 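Values are quantile-normalised luminescence on an arbitrary scale; higher means more cells surviving MMS.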 The numbers tell different reagents against one gene apart.

Test: 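Genes required for cells to withstand methyl methanesulphonate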 (primary screen)
Cells: Drosophila Kc167 cells
Reagent: long dsRNA against Drosophila genes, about 0.25 µg dsRNA per well
Duration: about 6 days: 3 days knock-down, then 3 days with or without MMS
Treatment: methyl methanesulphonate 0.004% (w/v) for 3 days after knock-down
Measured: 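Viability in wells given MMS, read as ATP luminescence, normalised by quantiles plate by plate and averaged across replicates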
Reading the numbers: mean viability with MMS and viability with MMS: higher = more surviving cells after MMS

gene | dsRNA no. | mean viability with MMS | viability with MMS, replicate 1 | viability with MMS, replicate 2
CG14718 | 1 | 3.59e6 | 3.95e6 | 4.22e6
CG32106 | 1 | 3.62e6 | 4.11e6 | 4.10e6
Best4 (Bestrophin 4) | 1 | 3.45e6 | 3.99e6 | 3.81e6
Or33c (Odorant receptor 33c) | 1 | 3.53e6 | 4.03e6 | 3.99e6
Pdh (Photoreceptor dehydrogenase) | 1 | 3.46e6 | 3.93e6 | 3.90e6
CG3515 | 1 | 3.45e6 | 3.91e6 | 3.88e6
CG7798 | 1 | 3.65e6 | 4.10e6 | 4.15e6
CG32548 | 1 | 3.48e6 | 3.92e6 | 3.97e6
CG32548 | 2 | 3.72e6 | 4.28e6 | 4.21e6
CG11771 | 1 | 3.50e6 | 4.01e6 | 3.92e6
CG7024 | 1 | 3.60e6 | 4.16e6 | 4.01e6
Ugt35E2 (UDP-glycosyltransferase family 35 member E2) | 1 | 3.47e6 | 3.96e6 | 3.95e6
CG42710 | 1 | 3.46e6 | 3.98e6 | 3.87e6
CG5087 | 1 | 3.41e6 | 3.86e6 | 3.86e6
cass (cassowary) | 1 | 3.16e6 | 3.74e6 | 3.36e6
Cpr49Aa (Cuticular protein 49Aa) | 1 | 3.60e6 | 4.15e6 | 4.09e6
Vha55 (Vacuolar H[+]-ATPase 55kD subunit) | 1 | 3.51e6 | 3.89e6 | 4.07e6
not (non-stop) | 1 | 3.50e6 | 3.96e6 | 3.95e6
Cmpk (Cytidine/uridine monophosphate kinase 1) | 1 | 3.63e6 | 4.11e6 | 4.10e6
CG15247 | 1 | 3.62e6 | 4.12e6 | 4.07e6
Wnt4 (Wnt oncogene analog 4) | 1 | 3.11e6 | 3.55e6 | 3.58e6
Wnt4 (Wnt oncogene analog 4) | 2 | 3.60e6 | 4.05e6 | 4.08e6
TwdlL (TweedleL) | 1 | 3.70e6 | 4.07e6 | 4.29e6
CG30355 | 1 | 3.62e6 | 4.05e6 | 4.10e6
heph (hephaestus) | 1 | 3.48e6 | 4.02e6 | 3.90e6
heph (hephaestus) | 2 | 3.53e6 | 4.01e6 | 4.01e6
heph (hephaestus) | 3 | 3.41e6 | 3.91e6 | 3.83e6
heph (hephaestus) | 4 | 3.83e6 | 4.38e6 | 4.28e6
